Assay results as given in the supplement of paper PMC10470496.
Where a name gives a salt, the structure may show the parent alone. The list shows a part of the results. Single values are uncertain, as repeats are few or missing.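 The strains were three CDC resistance-bank clinical C. auris isolates from clades III, IV and I, cultured in RPMI-1640 at 35°C. Growth was background-corrected OD600 versus vehicle-only wells on the same plate. A hit needed >50% inhibition in two or more strains plus a plate-corrected B-score exceeding 0.1.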

Experiments:
Test in all cases: growth relative to vehicle control (OD600 ratio) (fraction); higher = less inhibition
Conditions in all cases: 24 h
[1] = system: C. auris AR-384
[2] = system: C. auris AR-386
[3] = system: C. auris AR-387

| Compound | growth ([1]; 1 µM) | growth ([1]; 10 µM) | growth ([2]; 1 µM) | growth ([2]; 10 µM) | growth ([3]; 1 µM) | growth ([3]; 10 µM) |
| --- | --- | --- | --- | --- | --- | --- |
| CC#CC(=O)N1CCC[C@H]1c1nc(-c2ccc(C(=O)Nc3ccccn3)cc2)c2c(N)nccn12 [Acalabrutinib (ACP-196)] | 0.74 | 0.78 | 0.74 | 0.86 | 0.67 | 0.71 |
| CC[C@H]1OC(=O)C[C@@H](O)[C@H](C)[C@@H](O[C@@H]2O[C@H](C)[C@@H](O)[C@H](N(C)C)[C@H]2O)[C@@H](CCN2C[C@H](C)C[C@H](C)C2)C[C@@H](C)C(=O)/C=C/C(C)=C/[C@@H]1CO[C@@H]1O[C@H](C)[C@@H](O)[C@@H](OC)[C@H]1OC [Tilmicosin] | 0.82 | 0.78 | 1 | 0.56 | 0.63 | 0.69 |
| Nc1nccs1 [Aminothiazole] | 1.17 | 0.7 | 1 | 0.75 | 0.66 | 0.69 |
| CC[C@@]1(O)C(=O)OCc2c1cc1n(c2=O)Cc2cc3c(CN(C)C)c(O)ccc3nc2-1 [Topotecan HCl] | 1.2 | 0.88 | 0.82 | 1.07 | 1.15 | 1.2 |
| CN1CCC[C@@H]1CCO[C@](C)(c1ccccc1)c1ccc(Cl)cc1 [Clemastine Fumarate] | 0.91 | 0.85 | 0.95 | 0.81 | 1.21 | 1.02 |
| Cc1cnc(Nc2ccc(OCCN3CCCC3)cc2)nc1Nc1cccc(S(=O)(=O)NC(C)(C)C)c1 | 0.73 | 0.78 | 0.82 | 0.84 | 0.7 | 0.91 |
| Cc1ccc(NC(=O)c2ccc(CN3CCN(C)CC3)cc2)cc1Nc1nccc(-c2cccnc2)n1 [Imatinib (STI571)] | 0.89 | 1.06 | 1.21 | 1.06 | 1.09 | 0.95 |
| CC(C)(C)Cn1c(N)nc2ccc(-c3[nH]c(C(C)(C)C)nc3-c3ccc(F)cc3)nc21 | 0.72 | 1.33 | 0.9 | 1.14 | 0.91 | 0.91 |
| O=C(N/N=C/c1ccc([N+](=O)[O-])o1)c1ccc(O)cc1 [Nifuroxazide] | 0.95 | 1 | 0.71 | 1.2 | 1.02 | 1.15 |
| Cc1ccc(Cl)c(Nc2ccccc2C(=O)O)c1Cl [Meclofenamate Sodium] | 1.12 | 1.17 | 0.78 | 1.06 | 0.75 | 0.73 |
| COc1ccccc1N1CCN(CCCNc2cc(=O)n(C)c(=O)n2C)CC1 [Urapidil HCl] | 0.78 | 1.03 | 1.05 | 1.01 | 1.39 | 1.13 |
| CN1C2=CC(=O)/C(=N\NC(N)=O)C=C2CC1S(=O)(=O)O (centres undefined) [Carbazochrome sodium sulfonate (AC-17)] | 0.97 | 0.63 | 0.81 | 0.74 | 0.65 | 0.63 |
| Cc1cccc(-c2nn3c(c2-c2ccnc4ccc(C(N)=O)cc24)CCC3)n1 | 0.96 | 0.87 | 0.81 | 1.03 | 0.96 | 1.07 |
| N[C@@H]1CONC1=O [D-Cycloserine] | 1.32 | 1.33 | 1.15 | 1.19 | 1.38 | 1.19 |
| COc1cccc(-c2ccc(NC(=O)C3=C(C(=O)O)CCC3)c(F)c2)c1 [Vidofludimus] | 1.18 | 0.97 | 1.1 | 0.99 | 0.75 | 0.69 |
| CC(=O)[C@H]1CC[C@H]2[C@@H]3C=CC4=CC(=O)CC[C@@]4(C)[C@@H]3CC[C@]12C [Dydrogesterone] | 0.85 | 0.95 | 0.91 | 0.93 | 1.12 | 1 |
| S=C(NCc1ccc2c(c1)OCO2)N1CCN(c2ncnc3c2oc2ccccc23)CC1 [Amuvatinib (MP-470)] | 0.77 | 0.51 | 0.51 | 1.02 | 0.69 | 0.72 |
| CN1CCN(c2cc3c(cc2F)c(=O)c(C(=O)O)cn3-c2ccc(F)cc2)CC1 [Difloxacin HCl] | 0.84 | 0.73 | 0.97 | 1 | 1.03 | 0.94 |
| C[C@@H]1C[C@H]2[C@@H]3CCC4=CC(=O)C=C[C@]4(C)[C@@]3(Cl)[C@@H](O)C[C@]2(C)[C@@]1(OC(=O)c1ccco1)C(=O)CCl [Mometasone furoate] | 0.82 | 0.79 | 0.66 | 0.8 | 0.6 | 0.88 |
| CN1C[C@@H]2C[C@H]1CN2c1cc2c(cc1F)c(=O)c(C(=O)O)cn2C1CC1 [Danofloxacin Mesylate] | 0.82 | 0.71 | 0.89 | 0.67 | 1.1 | 1.07 |
| N[C@@H](Cc1cc(I)c(Oc2cc(I)c(O)c(I)c2)c(I)c1)C(=O)O [L-Thyroxine] | 1.11 | 0.98 | 1.14 | 1 | 0.89 | 0.61 |
| COc1nc(C)nc(Cl)c1NC1=NCCN1 [Moxonidine] | 1.08 | 0.87 | 0.91 | 0.83 | 0.98 | 1 |
| NS(=O)(=O)NCCNc1nonc1/C(=N/O)Nc1ccc(F)c(Br)c1 | 1.07 | 0.92 | 0.75 | 0.99 | 0.85 | 0.88 |
| CNC(=O)[C@H](Cc1ccccc1)NC(=O)[C@H](CC(C)C)[C@H](CSc1cccs1)C(=O)NO [Batimastat (BB-94)] | 1.13 | 1.26 | 1.44 | 1.28 | 1.49 | 1.19 |
| CNC(=O)CN(CCN(CCN(CC(=O)[O-])CC(=O)NC)CC(=O)[O-])CC(=O)[O-].O.[Gd+3] [Gadodiamide Hydrate] | 0.74 | 0.82 | 0.84 | 0.89 | 0.88 | 1.06 |
| CC(C)Nc1cc(-c2c[nH]c(C(=O)N[C@H](CO)c3cccc(Cl)c3)c2)c(Cl)cn1 | 0.95 | 0.97 | 0.67 | 0.65 | 0.81 | 0.76 |
| C[C@H](CCC(=O)O)[C@H]1CC[C@H]2[C@@H]3[C@@H](O)C[C@@H]4C[C@H](O)CC[C@]4(C)[C@H]3CC[C@]12C [Ursodiol] | 0.8 | 0.54 | 0.66 | 0.9 | 0.65 | 0.98 |
| NCCCC(N)(C(=O)O)C(F)F (centres undefined) [Eflornithine hydrochloride hydrate] | 0.63 | 0.46 | 1.04 | 0.73 | 0.58 | 0.72 |
| C=C1/C(=C\C=C2/CCC[C@]3(C)[C@@H]([C@H](C)/C=C/[C@@H](O)C4CC4)CC[C@@H]23)C[C@@H](O)C[C@@H]1O [Calcipotriene] | 0.92 | 1.37 | 0.78 | 1.25 | 0.98 | 1.3 |

Part of the list above in another layout:
Compound,growth ([1]; 1 µM),growth ([1]; 10 µM),growth ([2]; 1 µM),growth ([2]; 10 µM),growth ([3]; 1 µM),growth ([3]; 10 µM)
CC[C@H]1OC(=O)C[C@@H](O)[C@H](C)[C@@H](O[C@@H]2O[C@H](C)[C@@H](O)[C@H](N(C)C)[C@H]2O)[C@@H](CCN2C[C@H](C)C[C@H](C)C2)C[C@@H](C)C(=O)/C=C/C(C)=C/[C@@H]1CO[C@@H]1O[C@H](C)[C@@H](O)[C@@H](OC)[C@H]1OC [Tilmicosin],0.82,0.78,1,0.56,0.63,0.69
Nc1nccs1 [Aminothiazole],1.17,0.7,1,0.75,0.66,0.69
CC[C@@]1(O)C(=O)OCc2c1cc1n(c2=O)Cc2cc3c(CN(C)C)c(O)ccc3nc2-1 [Topotecan HCl],1.2,0.88,0.82,1.07,1.15,1.2
CN1CCC[C@@H]1CCO[C@](C)(c1ccccc1)c1ccc(Cl)cc1 [Clemastine Fumarate],0.91,0.85,0.95,0.81,1.21,1.02
Cc1cnc(Nc2ccc(OCCN3CCCC3)cc2)nc1Nc1cccc(S(=O)(=O)NC(C)(C)C)c1,0.73,0.78,0.82,0.84,0.7,0.91
Cc1ccc(NC(=O)c2ccc(CN3CCN(C)CC3)cc2)cc1Nc1nccc(-c2cccnc2)n1 [Imatinib (STI571)],0.89,1.06,1.21,1.06,1.09,0.95
